# The supplement of paper PMC12819154, “High-throughput peptide-centric local stability assay extends protein–ligand identification to membrane proteins, tissues and bacteria” (Nature Structural & Molecular Biology, 2025)
# The chains behind the UniProt entries cited, without tags or fusion partners.
# UniProt P34972, whole entry: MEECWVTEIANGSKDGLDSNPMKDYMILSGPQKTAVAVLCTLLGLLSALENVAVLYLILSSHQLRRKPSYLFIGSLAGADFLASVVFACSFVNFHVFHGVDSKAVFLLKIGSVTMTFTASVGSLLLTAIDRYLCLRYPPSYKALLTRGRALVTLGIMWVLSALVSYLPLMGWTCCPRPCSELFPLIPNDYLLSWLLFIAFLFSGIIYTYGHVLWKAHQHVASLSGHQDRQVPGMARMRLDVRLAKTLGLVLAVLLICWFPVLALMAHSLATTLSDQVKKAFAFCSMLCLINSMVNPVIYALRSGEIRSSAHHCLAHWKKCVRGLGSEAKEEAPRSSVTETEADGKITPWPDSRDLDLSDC
# Some of the results follow. Most entries show no effect beyond the scatter of the controls.
# Biological target: CB2 (UniProt P34972)
# Assay: log2 fold change of tryptic peptide abundance, ligand vs vehicle (limited proteolysis) (log2 ratio); higher = more trypsin-susceptible (destabilized)
# Settings: peptide sequence: KCVRGLGSEAK; peptide start residue: 319; ligand concentration: 5 uM; sample: K562 cleared lysate
smiles,measurement,value
Cc1nc(Nc2ncc(C(=O)Nc3c(C)cccc3Cl)s2)cc(N2CCN(CCO)CC2)n1 [dasatinib],log2 fold change,0.0667
